“And” between values parts separate entries of the source, which are not always exact repeats. Equal values may be shown once. The list shows a part of the results. The main result of the screen is listed elsewhere. These columns were measured beside it and carry no call. The list favours compounds with an active or inconclusive main result. The note in brackets gives the kind of curve behind each potency; many fits are weak.
Assay: qHTS Assay to Find Inhibitors of Chronic Active B-Cell Receptor Signaling
Conditions: ABC-DLBCL IkBa-CBG/CBR reporter, luminescence ratio (green luciferase fused to IkBa over red control in TMD8 lymphoma cells), 4 h
How it was run: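 TMD8 ABC-DLBCL cells carrying doxycycline-inducible green luciferase fused to IkappaBalpha plus unfused red luciferase were exposed to compounds (up to 46 uM) for 4 hrs at 37C. Activity came from the overlap-corrected green/red luminescence ratio.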

[1] = measured here: CBR red luminescence, cell number

Row | SMILES | AC50 [1] | AC50 (measured here: IkBa-CBG green luminescence)
1 | O=c1oc(Nc2cccc(F)c2)nc2ccccc12 | 1.58 µM [falling, full curve] | 
2 | CC(=O)c1c(O)cc(O)c(C(C)=O)c1O | 35.5 µM [falling, single point] | 
3 | CCCCCn1c(=O)c(C(=O)NCc2ccncc2)c(O)c2ccccc21 | 14.1 µM [falling, partial curve, poor fit] | 
4 | Cc1cccc(Cn2c(=O)oc3ccc(C)cc32)c1 | 5.62 µM [rising, partial curve, poor fit] | 
5 | CNC(=O)OCCc1n(C)cc[n+]1C | 0.00411 µM [rising, full curve, poor fit] | 
6 | COc1ccc(NC(=O)CN(C)C(=O)Cn2c(=O)oc3ccccc32)cc1 | 0.164 µM [falling, full curve, poor fit] | 
7 | O=c1ccc2cc3ccoc3c(O)c2o1 | 0.164 µM [rising, full curve, poor fit] | 
8 | CCOP(=S)(OCC)SCC(=O)NC(C(=O)O)C(C)C (stereo not drawn) | 0.461 µM [falling, full curve, poor fit] | 
9 | COc1ccccc1OCCNCC(O)COc1cccc2[nH]c3ccccc3c12 (stereo not drawn) | 11.2 µM [falling, partial curve] and 22.4 µM [falling, single point] | 
10 | COC(=O)C(O)(c1ccc(NC(=S)NC(=O)c2ccc(Cl)cc2Cl)cc1)C(F)(F)F (stereo not drawn) | 3.66 µM [falling, partial curve, poor fit] | 
11 | CN1CCC(NCCC(c2ccc(F)cc2)c2ccc(Cl)cc2)CC1 (stereo not drawn) | 28.2 µM [falling, single point] | 
12 | O=c1oc2ccccc2c(O)c1[C@H]1c2ccc(O)cc2Oc2c1c(=O)oc1ccccc21 | 1.41 µM [falling, partial curve, poor fit] | 14.1 µM [rising, partial curve, poor fit]
13 | Cc1ccc(S(=O)(=O)NCCC(=O)Nc2ccc(Cl)cc2C(=O)c2ccccc2)cc1 | 29.1 µM [falling, single point] | 
14 | Cc1ccc(/C=C2\C(=O)NC(=S)N(c3ccccc3F)C2=O)s1 | 4.61 µM [falling, full curve] | 
15 | COC(=O)C1=C(c2ccc(OC)c(OC)c2)C[C@@H]2CC[C@H]1N2C(=O)NCCc1ccccc1 | 5.17 µM [rising, partial curve, poor fit] | 
16 | O=C1NC(=S)N(Cc2ccco2)C(=O)/C1=C\c1cccs1 | 35.5 µM [falling, partial curve, poor fit] | 
17 | Cc1ccc(Nc2nc(N/N=C\c3ccc4c(c3)OCO4)nc(N3CCOCC3)n2)cc1 | 11.2 µM [falling, single point] | 

In a second layout: results already given

| Row | SMILES | AC50 [1] | AC50 (measured here: IkBa-CBG green luminescence) |
| --- | --- | --- | --- |
| 10 | COC(=O)C(O)(c1ccc(NC(=S)NC(=O)c2ccc(Cl)cc2Cl)cc1)C(F)(F)F (stereo not drawn) | 3.66 µM [falling, partial curve, poor fit] |  |
| 11 | CN1CCC(NCCC(c2ccc(F)cc2)c2ccc(Cl)cc2)CC1 (stereo not drawn) | 28.2 µM [falling, single point] |  |

From PubChem BioAssay AID493014 (National Center for Advancing Translational Sciences (NCATS), 2011)
